{
  "source": "patent US11931397B2",
  "about": "“Methods and compositions for the treatment of Sengers syndrome” (Stealth BioTherapeutics Inc., priority 2018, dated 2024)",
  "key": {"[1]": {"test_system": "AGK^KO cell line", "test": "Mitochondrial protein levels by quantitative Western blotting in AGK knockout cells", "format": "cell-based", "conditions": "10 nM-1 μM for 24 hours; compared to untreated control AGK^KO cells"}, "[2]": {"test_system": "Primary Sengers syndrome patient fibroblasts", "test": "Mitochondrial protein levels by quantitative Western blotting in Sengers syndrome patient fibroblasts", "format": "cell-based, human", "conditions": "10 nM-1 μM for 24 hours; compared to untreated Sengers syndrome patient fibroblasts"}, "[3]": {"test_system": "patient with a homozygous AGK founder mutation (Sengers syndrome)", "test": "Clinical comments recorded at the CGI evaluations (CGI Short Form)", "format": "in vivo, human", "conditions": "intravenous 0.50 mg/kg/day"}, "[4]": {"test_system": "patient with a homozygous AGK founder mutation (Sengers syndrome)", "test": "Weekly Clinical Global Impression (CGI) evaluations of a Sengers syndrome patient under compassionate care treatment", "format": "in vivo, human", "parameters": "key to Global Improvement: 1 = Very much improved; 2 = Much improved; 3 = Minimally improved; 4 = No change; 5 = Minimally worse; 6 = Much worse; 7 = Very much worse"}, "[5]": {"test_system": "patient with a homozygous AGK founder mutation (Sengers syndrome)", "test": "Bi-weekly echocardiograms (cardiac function) of the treated Sengers syndrome patient", "format": "in vivo, human"}, "[6]": {"test_system": "Sengers syndrome patients", "test": "Daily administration to Sengers syndrome patients, weekly evaluation of signs and symptoms", "format": "in vivo, human", "conditions": "daily administrations of a therapeutically effective amount"}, "[7]": {"conditions": "August 8, intravenous 0.50 mg/kg/day"}, "[8]": {"conditions": "August 15, intravenous 0.50 mg/kg/day"}, "[9]": {"conditions": "November 1, intravenous 0.50 mg/kg/day"}, "[10]": {"conditions": "November 14, intravenous 0.50 mg/kg/day"}, "[11]": {"conditions": "November 22, intravenous 0.50 mg/kg/day"}, "[12]": {"conditions": "October 4, intravenous 0.50 mg/kg/day"}, "[13]": {"conditions": "October 10, intravenous 0.50 mg/kg/day"}},
  "note": "At least one peptide structure holds a part that was inferred or is arguable (an end, a ring closure or a residue). Where a SMILES comes first, the peptide text is derived from it. [ ]: non-standard residue; d: D form. Dmt = Cc1cc(O)cc(C)c1C[C@H](N)C(=O)O",
  "data": [
    {"smiles": "Cc1cc(O)cc(C)c1C[C@H](NC(=O)[C@H](N)CCCNC(=N)N)C(=O)N[C@@H](CCCCN)C(=O)N[C@@H](Cc1ccccc1)C(N)=O", "note": "[D-Arg-2′6′-Dmt-Lys-Phe-NH2] (H-[dR][Dmt]KF-NH2)", "values": [
      {"measurement": "Levels of one or more of ANT1, ANT3, PiC, or TIM22 subunits (hTim22, Tim29, and hTim9)", "setting": "[1]", "result": "increased levels"},
      {"measurement": "Levels of one or more of AGK, ANT1, ANT3, PiC, or TIM22 subunits (hTim22, Tim29, and hTim9)", "setting": "[2]", "result": "increased levels"},
      {"measurement": "Comments", "setting": "[3]; August 8", "result": "Unchanged feeding"},
      {"measurement": "Comments", "setting": "[3]; August 29", "result": "ECHO stable, status quo since last week"},
      {"measurement": "Comments", "setting": "[3]; November 22", "result": "Stable, no significant change from last week"},
      {"measurement": "Comments", "setting": "[3]; October 4", "result": "ECHO stable HCM (hypertrophic"},
      {"measurement": "Global Improvement", "setting": "[4]; [7]", "result": "No change"},
      {"measurement": "Severity of Illness", "setting": "[4]; [7]", "result": "Mildly ill (3 = Mildly ill)"},
      {"measurement": "Global Improvement", "setting": "[4]; [8]", "result": "No change"},
      {"measurement": "Severity of Illness", "setting": "[4]; [8]", "result": "Mildly ill (3 = Mildly ill)"},
      {"measurement": "Severity of Illness", "setting": "[4]; August 29, intravenous 0.50 mg/kg/day", "result": "Mildly ill (3 = Mildly ill)"},
      {"measurement": "Severity of Illness", "setting": "[4]; July 4, intravenous 0.25 mg/kg/day", "result": "Moderately ill"},
      {"measurement": "Severity of Illness", "setting": "[4]; July 11, intravenous 0.25 mg/kg/day", "result": "Mildly ill (3 = Mildly ill)"},
      {"measurement": "Severity of Illness", "setting": "[4]; July 18, intravenous 0.25 mg/kg/day", "result": "Mildly ill (3 = Mildly ill)"},
      {"measurement": "Severity of Illness", "setting": "[4]; July 25 (dose doubled on this day)", "result": "Mildly ill (3 = Mildly ill)"},
      {"measurement": "Global Improvement", "setting": "[4]; July 25 (dose doubled on this day), since last week", "result": "No change"},
      {"measurement": "Severity of Illness", "setting": "[4]; June 12, initiation of intravenous 0.25 mg/kg/day (baseline)", "result": "Markedly ill (5 = Markedly ill)"},
      {"measurement": "Severity of Illness", "setting": "[4]; June 19, intravenous 0.25 mg/kg/day", "result": "Moderately ill"},
      {"measurement": "Severity of Illness", "setting": "[4]; June 29, intravenous 0.25 mg/kg/day", "result": "Moderately ill"},
      {"measurement": "Global Improvement", "setting": "[4]; [9]", "result": "Much improved"},
      {"measurement": "Severity of Illness", "setting": "[4]; [9]", "result": "Borderline ill"},
      {"measurement": "Global Improvement", "setting": "[4]; [10]", "result": "Much improved"},
      {"measurement": "Severity of Illness", "setting": "[4]; [10]", "result": "Borderline ill"},
      {"measurement": "Global Improvement", "setting": "[4]; [11]", "result": "Much improved"},
      {"measurement": "Severity of Illness", "setting": "[4]; [11]", "result": "Borderline ill"},
      {"measurement": "Global Improvement", "setting": "[4]; [12]", "result": "No change"},
      {"measurement": "Severity of Illness", "setting": "[4]; [12]", "result": "Borderline ill"},
      {"measurement": "Global Improvement", "setting": "[4]; [13]", "result": "No change"},
      {"measurement": "Severity of Illness", "setting": "[4]; [13]", "result": "Borderline ill"},
      {"measurement": "Severity of Illness", "setting": "[4]; October 18, intravenous 0.50 mg/kg/day", "result": "Mildly ill (3 = Mildly ill)"},
      {"measurement": "Severity of Illness", "setting": "[4]; October 25, intravenous 0.50 mg/kg/day", "result": "Borderline ill"},
      {"measurement": "Severity of Illness", "setting": "[4]; September 6, intravenous 0.50 mg/kg/day", "result": "Mildly ill (3 = Mildly ill)"},
      {"measurement": "Overall change of CGI severity of illness", "setting": "[4]; approximately six months of treatment, 0.25 then 0.50 mg/kg/day intravenous (FIG. 1)", "result": "improved from markedly ill to borderline ill"},
      {"measurement": "Evaluations at which the patient improved from the prior week", "setting": "[4]; approximately six months of treatment, weekly CGI evaluations", "result": "12/19"},
      {"measurement": "ECHO: FS", "setting": "[5]; [10]", "result": "FS 40%"},
      {"measurement": "ECHO: HR", "setting": "[5]; [10]", "result": "HR 125/min"},
      {"measurement": "ECHO: LV dia", "setting": "[5]; [10]", "result": 27, "unit": "mm"},
      {"measurement": "ECHO: LV sys", "setting": "[5]; [10]", "result": 16, "unit": "mm"},
      {"measurement": "ECHO: PW", "setting": "[5]; [10]", "result": "PW 11 mm"},
      {"measurement": "ECHO: Septum", "setting": "[5]; [10]", "result": "Septum 10 mm"},
      {"measurement": "Cardiac function: ejection fraction as assessed by echocardiogram", "setting": "[5]; treatment period of approximately six months, initial ejection fraction poor", "result": "improved in the first few weeks of treatment and remained relatively stable thereafter"},
      {"measurement": "Symptoms associated with Sengers syndrome", "setting": "[6]", "result": "reduced severity or elimination of symptoms"}
    ]}
  ]
}
